The subject of experiment [1] is SARS-CoV-2 -1 PRF reporter mCherry-FSE-GFP(-1). Briefly: mCherry (red) intensity as percent of control; higher = higher upstream reporter expression. The following applies: 10 µM; 24 h; HEK293T.
Experiment [2] shares this test system. Kind of experiment: percent effect, decrease of GFP/mCherry ratio (-1 PRF reporter) relative to controls; higher = stronger frameshift inhibition. The following applies: 10 µM; 24 h; HEK293T.

Structures can show the parent of a compound that is named as a salt. Some of the results follow. Repeats in this data set agree poorly, so a single value says little.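 HEK293T cells were given each compound shortly before transfection with a reporter in which red mCherry is followed by the SARS-CoV-2 frameshift element and then GFP in the −1 frame, so GFP appears only after frameshifting.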

In the case of `CC[C@@]1(O)C(=O)OCc2c1cc1n(c2=O)Cc2cc3c([N+](=O)[O-])cccc3nc2-1` [rubitecan], the mCherry in experiment [1] came to 173%. Further, the percent effect in experiment [2] worked out at 1.99%.

In the case of `CN1CCCCC1CCN1c2ccccc2Sc2ccc([S+](C)[O-])cc21` (centres undefined) [Mesoridazine besylate], the mCherry in experiment [1] was 74.7%. The percent effect in experiment [2] is -1.2%.

Consider `COC(=O)[C@H](Cc1ccccc1)NC(=O)[C@@H](N)CC(=O)O`, for which, in experiment [1], the mCherry is 78.9%. Besides, the percent effect in experiment [2] is -2.49%.

As for `C=CCCCCCCCCC(=O)[O-].C=CCCCCCCCCC(=O)[O-].[Zn+2]`, the mCherry in experiment [1] came out at 121%. Besides, in experiment [2], the percent effect is -1.66%.

The compound `C/C=C/C(=O)N(CCC)C(CC)C(=O)N(C)C` (centres undefined) [cropropamide] displayed a mCherry in experiment [1] of 67.3%. Moreover, the percent effect in experiment [2] is -0.343%.

`COc1ccc(Cl)cc1C(=O)NCCc1ccc(C(=O)O)cc1` [meglitinide]: in experiment [1], the mCherry stood at 96.9%. Moreover, in experiment [2], the percent effect is 1.84%.

As for `CO/N=C(\C(=O)N[C@@H]1C(=O)N2C(C(=O)OC(C)OC(C)=O)=C(COC(N)=O)CS[C@H]12)c1ccco1` (some centres undefined), the mCherry in experiment [1] came to 81.9%. Moreover, in experiment [2], the percent effect was -1.06%.

Turning to `CN[C@@H]1[C@H](O)[C@H](NC)[C@H]2O[C@@]3(O)C(=O)C[C@@H](C)O[C@H]3O[C@@H]2[C@H]1O`, the mCherry in experiment [1] is 113%. In addition, the percent effect in experiment [2] is -9.79%.

In the case of `N[C@@H](Cc1c[nH]cn1)C(=O)O` [histidine], the mCherry in experiment [1] stood at 99.1%. Also, in experiment [2], the percent effect came out at 4.41%.

`CCN(CC)CC(=O)Nc1c(C)cccc1C` [Lidocaine·HCl·H2O] displayed a mCherry in experiment [1] of 81.3%. Moreover, the percent effect in experiment [2] is -0.353%.

Compound `Cc1ccccc1N1CCN(CCc2nnc3n2CCCC3)CC1` [dapiprazole] displayed a mCherry in experiment [1] of 71.2%. Further, the percent effect in experiment [2] turned out to be 2.38%.

For the compound `Cc1cc(Cl)c(S(N)(=O)=O)cc1S(N)(=O)=O` [disulfamide], the mCherry in experiment [1] was 111%. Moreover, in experiment [2], the percent effect is -2.18%.

`CN(C)CCOC(c1ccccc1)c1ccc(Br)cc1` (centres undefined) [Bromodiphenhydramine] showed a mCherry in experiment [1] of 92.9%. For the same compound, the percent effect in experiment [2] was -5.91%.

Consider `CO[C@@H]1[C@@H](OC(N)=O)[C@@H](O)[C@H](Oc2ccc3c(O)c(NC(=O)c4ccc(O)c(CC=C(C)C)c4)c(=O)oc3c2C)OC1(C)C` [novobiocin], for which the mCherry in experiment [1] is 81.3%. For the same compound, in experiment [2], the percent effect is -7.79%.

Turning to `N=C(N)NC(=O)c1nc(Cl)c(N)nc1N` [Amiloride], in experiment [1], the mCherry was 89.9%. Further, in experiment [2], the percent effect stood at 3.26%.

Turning to `O=C(NCC1CCCCN1)c1cc(OCC(F)(F)F)ccc1OCC(F)(F)F` (centres undefined) [flecainide], the mCherry in experiment [1] was determined as 94.9%. In addition, the percent effect in experiment [2] was -2.51%.

`C=CC1=C(C(=O)O)N2C(=O)[C@@H](NC(=O)/C(=N\O)c3csc(N)n3)[C@H]2SC1` gave a mCherry in experiment [1] of 105%. Moreover, the percent effect in experiment [2] was -1.2%.

`N=C(N)NCc1ccc2c(c1)OCCO2` [guabenxan] displayed a mCherry in experiment [1] of 89.7%. In addition, the percent effect in experiment [2] amounted to 0.103%.

Compound `COc1ccc(/C=C/C(=O)Nc2ccccc2C(=O)O)cc1OC` [Tranilast] registered a mCherry in experiment [1] of 94.8%. The percent effect in experiment [2] worked out at 1.35%.

For the compound `COC(=O)Nc1nc2cc([S+]([O-])c3ccccc3)ccc2[nH]1` (centres undefined), the mCherry in experiment [1] is 120%. In addition, the percent effect in experiment [2] worked out at 1.04%.

For the compound `COc1cc(NCCCCCNC(C)C)c2ncccc2c1` [pentaquine], the mCherry in experiment [1] came to 80.9%. Moreover, the percent effect in experiment [2] was -0.134%.

Take `CC(=O)NS(=O)(=O)c1ccc(N)cc1` [sulfacetamide]: the mCherry in experiment [1] was 117%. Moreover, the percent effect in experiment [2] is -1.08%.

Take `COC(=O)[C@@H](N)CS`: the mCherry in experiment [1] came out at 112%. In addition, in experiment [2], the percent effect is -2.77%.

In experiment [1], `O=C(O)CCCCC1CCSS1` (centres undefined) came in with a mCherry of 91.1%. Further, the percent effect in experiment [2] was 1.9%.

For `CC(=O)N1CCC(c2ccc(C(=O)N=C(N)N)cc2C(F)(F)F)CC1`, the mCherry in experiment [1] came out at 69.3%. For the same compound, in experiment [2], the percent effect is -0.169%.

As for `O=C(Nc1c(Cl)cncc1Cl)c1ccc(OC(F)F)c(OCC2CC2)c1` [roflumilast], the mCherry in experiment [1] was 82.8%. Besides, the percent effect in experiment [2] was -2.15%.

Turning to `CC(=O)OCC(=O)[C@@]12N=C(C)O[C@@H]1C[C@H]1[C@@H]3CCC4=CC(=O)C=C[C@]4(C)[C@H]3[C@@H](O)C[C@@]12C` [deflazacort], the mCherry in experiment [1] turned out to be 107%. For the same compound, the percent effect in experiment [2] was -4.66%.

The compound `Cc1ccc(-c2ncc(Cl)cc2-c2ccc(S(C)(=O)=O)cc2)cn1` [etoricoxib] came in with a mCherry in experiment [1] of 329%. In addition, the percent effect in experiment [2] was -1.8%.

In turn, `CCC(=O)O[C@H](CC(=O)O)C[N+](C)(C)C` had a mCherry in experiment [1] of 111%. In addition, the percent effect in experiment [2] was -6.29%.

Compound `Nc1nc2c(c(=O)[nH]1)N(C=O)C(CNc1ccc(C(=O)N[C@@H](CCC(=O)O)C(=O)O)cc1)CN2` (some centres undefined) registered a mCherry in experiment [1] of 92%. Besides, the percent effect in experiment [2] is -2.77%.

On to `NC(Cc1c[nH]c2ccc(O)cc12)C(=O)O` (centres undefined), for which the mCherry in experiment [1] stood at 123%. The percent effect in experiment [2] was -7.45%.

In experiment [1], `CCCc1c(OCCCOc2cc(O)c(-c3ccc(F)cc3)cc2CC)cccc1Oc1ccccc1C(=O)O` [etalocib] yielded a mCherry of 81.1%. The percent effect in experiment [2] was -3.79%.

As to `C[C@@H]1C[C@H]2[C@@H]3C[C@H](F)C4=CC(=O)C=C[C@]4(C)[C@H]3[C@@H](O)C[C@]2(C)[C@@]1(O)C(=O)CO` [paramethasone], the mCherry in experiment [1] was 61.1%. Besides, the percent effect in experiment [2] was -2.24%.

The compound `CC(S)C(=O)NCC(=O)O` (centres undefined) [tiopronin] returned a mCherry in experiment [1] of 99.3%. Moreover, the percent effect in experiment [2] was -2.8%.

The compound `CN[C@@H]1[C@H](O)[C@H](NC)[C@H]2O[C@@]3(O)C(=O)C[C@@H](C)O[C@H]3O[C@@H]2[C@H]1O` [spectinomycin] had a mCherry in experiment [1] of 107%. Also, the percent effect in experiment [2] is -2.5%.

In turn, `Cc1cc2c(OCC(O)CNC(C)C)cccc2[nH]1` (centres undefined) [mepindolol] displayed a mCherry in experiment [1] of 79.5%. In addition, the percent effect in experiment [2] is -1.04%.

For `O=C1O[C@H]([C@@H](O)CO)C(O)=C1O`, the mCherry in experiment [1] was found to be 96.1%. Further, in experiment [2], the percent effect was -1.17%.
